Where a name gives a salt, the structure may show the parent alone. Some entries share one result that the patent states for a list of compounds.
Target: T1, human S1P3 receptor (Homo sapiens, UniProt Q99500)
T1 construct: expressed in transfected cells; membranes
Assay: S1P3 GTPγS assay
Type: biochemical
Conditions: agonist activity, [35S]-GTPγS binding, S1P3 RBL membranes

By UniProt entry, the sequences of proteins in these tests, tags left out. Where a name states a change or a piece, a line headed by the entry shows the natural chain unless it says otherwise.
UniProt Q99500: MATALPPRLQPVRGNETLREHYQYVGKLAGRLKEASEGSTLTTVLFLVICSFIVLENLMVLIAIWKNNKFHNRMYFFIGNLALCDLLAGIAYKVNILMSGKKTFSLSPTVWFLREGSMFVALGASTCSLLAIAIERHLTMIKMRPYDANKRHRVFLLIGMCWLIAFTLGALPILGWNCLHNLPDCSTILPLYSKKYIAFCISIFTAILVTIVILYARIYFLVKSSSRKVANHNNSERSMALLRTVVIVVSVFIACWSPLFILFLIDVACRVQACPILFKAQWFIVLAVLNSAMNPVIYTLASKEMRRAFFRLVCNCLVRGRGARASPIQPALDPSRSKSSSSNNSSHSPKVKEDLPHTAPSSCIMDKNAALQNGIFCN

| Structure (SMILES) | pEC50 |
| --- | --- |
| CC(C)Oc1ccc(-c2nc(-c3ccc4c(c3)CCCNC4)no2)cc1Cl.Cl [Example 1, 7-(5-{3-Chloro-4-[(1-methylethyl)oxy]phenyl}-1,2,4-oxadiazol-3-yl)-2,3,4,5-tetrahydro-1H-2-benzazepine hydrochloride] | ≤ 5 |
| CC(C)Oc1ccc(-c2nc(-c3ccc4c(c3)CCCN(CC(=O)O)C4)no2)cc1Cl [Example 2, [7-(5-{3-Chloro-4-[(1-methylethyl)oxy]phenyl}-1,2,4-oxadiazol-3-yl)-1,3,4,5-tetrahydro-2H-2-benzazepin-2-yl]acetic acid] | ≤ 5 |
| CC(C)Oc1ccc(-c2nc(-c3ccc4c(c3)CCCNC4)no2)cc1C#N.Cl [Example 3, 2-[(1-Methylethyl)oxy]-5-[3-(2,3,4,5-tetrahydro-1H-2-benzazepin-7-yl)-1,2,4-oxadiazol-5-yl]benzonitrile hydrochloride] | ≤ 5 |
| CC(C)Oc1ccc(-c2nc(-c3ccc4c(c3)CCCN(CC(=O)O)C4)no2)cc1C#N [Example 4, [7-(5-{3-Cyano-4-[(1-methylethyl)oxy]phenyl}-1,2,4-oxadiazol-3-yl)-1,3,4,5-tetrahydro-2H-2-benzazepin-2-yl]acetic acid] | ≤ 5 |
| CC(=O)O.CC(C)Oc1ccc(-c2nc(-c3ccc4c(c3)CCCN(CCCC(=O)O)C4)no2)cc1C#N [Example 5, 4-[7-(5-{3-Cyano-4-[(1-methylethyl)oxy]phenyl}-1,2,4-oxadiazol-3-yl)-1,3,4,5-tetrahydro-2H-2-benzazepin-2-yl]butanoic acid acetate] | ≤ 5 |
| CC(C)Oc1ccc(-c2nc(-c3cccc4c3CCNCC4)no2)cc1Cl.Cl [Example 8, 6-(5-{3-Chloro-4-[(1-methylethyl)oxy]phenyl}-1,2,4-oxadiazol-3-yl)-2,3,4,5-tetrahydro-1H-3-benzazepine hydrochloride] | ≤ 5 |
| CC(C)Oc1ccc(-c2nc(-c3cccc4c3CCN(CCC(=O)O)CC4)no2)cc1Cl.Cl [Example 9, 3-[6-(5-{3-Chloro-4-[(1-methylethyl)oxy]phenyl}-1,2,4-oxadiazol-3-yl)-1,2,4,5-tetrahydro-3H-3-benzazepin-3-yl]propanoic acid hydrochloride] | ≤ 5 |
| CC(C)Oc1ccc(-c2nc(-c3cccc4c3CCN(CC(=O)O)CC4)no2)cc1Cl.Cl [Example 10, [6-(5-{3-Chloro-4-[(1-methylethyl)oxy]phenyl}-1,2,4-oxadiazol-3-yl)-1,2,4,5-tetrahydro-3H-3-benzazepin-3-yl]acetic acid hydrochloride] | ≤ 5 |
| CC(C)Oc1ccc(-c2nc(-c3cccc4c3CCCNC4)no2)cc1Cl [Example 11, 6-(5-{3-Chloro-4-[(1-methylethyl)oxy]phenyl}-1,2,4-oxadiazol-3-yl)-2,3,4,5-tetrahydro-1H-2-benzazepine] | ≤ 5 |
| CC(C)Oc1ccc(-c2nc(-c3cccc4c3CCCN(CC(=O)O)C4)no2)cc1Cl.Cl [Example 12, [6-(5-{3-Chloro-4-[(1-methylethyl)oxy]phenyl}-1,2,4-oxadiazol-3-yl)-1,3,4,5-tetrahydro-2H-2-benzazepin-2-yl]acetic acid hydrochloride] | ≤ 5 |
| CC(C)Oc1ccc(-c2nc(-c3ccc4c(c3)OCCNC4)no2)cc1Cl.Cl [Example 13, 8-(5-{3-Chloro-4-[(1-methylethyl)oxy]phenyl}-1,2,4-oxadiazol-3-yl)-2,3,4,5-tetrahydro-1,4-benzoxazepine hydrochloride] | ≤ 5 |
| CC(C)Oc1ccc(-c2nc(-c3ccc4c(c3)OCCN(CCC(=O)O)C4)no2)cc1Cl.Cl [Example 14, 3-[8-(5-{3-Chloro-4-[(1-methylethyl)oxy]phenyl}-1,2,4-oxadiazol-3-yl)-2,3-dihydro-1,4-benzoxazepin-4(5H)-yl]propanoic acid hydrochloride] | ≤ 5 |
| CC(C)Oc1ccc(-c2nc(-c3ccc4c(c3)CCN(CCCC(=O)O)CC4)no2)cc1Cl [Example 26, 4-[7-(5-{3-Chloro-4-[(1-methylethyl)oxy]phenyl}-1,2,4-oxadiazol-3-yl)-1,2,4,5-tetrahydro-3H-3-benzazepin-3-yl]butanoic acid] | ≤ 5 |
| COc1ccc(-c2nc(-c3ccc4c(c3)CCNCC4)no2)cc1C#N [Example 30, 2-(Methyloxy)-5-[3-(2,3,4,5-tetrahydro-1H-3-benzazepin-7-yl)-1,2,4-oxadiazol-5-yl]benzonitrile hydrochloride] | ≤ 5 |
| CC(C)Oc1ccc(-c2nc(-c3cccc4c3OCCNC4)no2)cc1Cl.Cl [Example 31, 9-(5-{3-Chloro-4-[(1-methylethyl)oxy]phenyl}-1,2,4-oxadiazol-3-yl)-2,3,4,5-tetrahydro-1,4-benzoxazepine hydrochloride] | ≤ 5 |
| CC(C)Oc1ccc(-c2nc(-c3cccc4c3OCCNC4)no2)cc1C#N.Cl [Example 32, 2-[(1-Methylethyl)oxy]-5-[3-(2,3,4,5-tetrahydro-1,4-benzoxazepin-9-yl)-1,2,4-oxadiazol-5-yl]benzonitrile hydrochloride] | ≤ 5 |

| Structure (SMILES) | pEC50 |
| --- | --- |
| CC(C)Oc1ccc(-c2nc(-c3cccc4c3OCCN(CCCC(=O)O)C4)no2)cc1Cl [Example 33, 4-[9-(5-{3-Chloro-4-[(1-methylethyl)oxy]phenyl}-1,2,4-oxadiazol-3-yl)-2,3-dihydro-1,4-benzoxazepin-4(5H)-yl]butanoic acid] | ≤ 5 |
| CC(C)Oc1ccc(-c2nc(-c3cccc4c3OCCN(CCCC(=O)O)C4)no2)cc1C#N [Example 34, 4-[9-(5-{3-Cyano-4-[(1-methylethyl)oxy]phenyl}-1,2,4-oxadiazol-3-yl)-2,3-dihydro-1,4-benzoxazepin-4(5H)-yl]butanoic acid] | ≤ 5 |
| CC(C)Oc1ccc(-c2nc(-c3ccc4c(c3)CNCCO4)no2)cc1Cl.Cl [Example 36, 7-(5-{3-chloro-4-[(1-methylethyl)oxy]phenyl}-1,2,4-oxadiazol-3-yl)-2,3,4,5-tetrahydro-1,4-benzoxazepine hydrochloride] | ≤ 5 |
| CC(C)Oc1ccc(-c2nc(-c3ccc4c(c3)CN(CCC(=O)O)CCO4)no2)cc1C#N [Example 37, 3-[7-(5-{3-Cyano-4-[(1-methylethyl)oxy]phenyl}-1,2,4-oxadiazol-3-yl)-2,3-dihydro-1,4-benzoxazepin-4(5H)-yl]propanoic acid] | ≤ 5 |
| CC(C)Oc1ccc(-c2nc(-c3ccc4c(c3)CN(CCCC(=O)O)CCO4)no2)cc1C#N [Example 39, 4-[7-(5-{3-Cyano-4-[(1-methylethyl)oxy]phenyl}-1,2,4-oxadiazol-3-yl)-2,3-dihydro-1,4-benzoxazepin-4(5H)-yl]butanoic acid] | ≤ 5 |
| CC(C)Oc1ccc(-c2nc(-c3ccc4c(c3)CN(CCCC(=O)O)CCO4)no2)cc1Cl [Example 40, 4-[7-(5-{3-chloro-4-[(1-methylethyl)oxy]phenyl}-1,2,4-oxadiazol-3-yl)-2,3-dihydro-1,4-benzoxazepin-4(5H)-yl]butanoic acid] | ≤ 5 |
| CC(C)Oc1ccc(-c2nc(-c3ccc4c(c3)OCCNC4)no2)cc1C#N.Cl [Example 41, 2-[(1-Methylethyl)oxy]-5-[3-(2,3,4,5-tetrahydro-1,4-benzoxazepin-8-yl)-1,2,4-oxadiazol-5-yl]benzonitrile] | ≤ 5 |
| CC(C)Oc1ccc(-c2nc(-c3cccc4c3OCCN(CCCCC(=O)O)C4)no2)cc1C#N [Example 43, 5-[9-(5-{3-Cyano-4-[(1-methylethyl)oxy]phenyl}-1,2,4-oxadiazol-3-yl)-2,3-dihydro-1,4-benzoxazepin-4(5H)-yl]pentanoic acid] | ≤ 5 |
| CC(C)Oc1ccc(-c2nc(-c3cccc4c3OCCN(CC(=O)O)C4)no2)cc1C#N [Example 44, [9-(5-{3-Cyano-4-[(1-methylethyl)oxy]phenyl}-1,2,4-oxadiazol-3-yl)-2,3-dihydro-1,4-benzoxazepin-4(5H)-yl]acetic acid] | ≤ 5 |
| CC(C)Oc1ncc(-c2nc(-c3cccc4c3OCCN(CCC(=O)O)C4)no2)cc1Cl [Example 45, 3-[9-(5-{5-Chloro-6-[(1-methylethyl)oxy]-3-pyridinyl}-1,2,4-oxadiazol-3-yl)-2,3-dihydro-1,4-benzoxazepin-4(5H)-yl]propanoic acid] | ≤ 5 |
| CC(C)Oc1ccc(-c2nc(-c3cccc4c3OCCN(CCC(=O)O)C4)no2)cc1C#N [Example 46, 3-[9-(5-{3-Cyano-4-[(1-methylethyl)oxy]phenyl}-1,2,4-oxadiazol-3-yl)-2,3-dihydro-1,4-benzoxazepin-4(5H)-yl]propanoic acid] | ≤ 5 |
| CC(C)Oc1ccc(-c2nc(-c3cccc4c3OCCN(CCC(=O)O)C4)no2)cc1Cl [Example 47, 3-[9-(5-{3-Chloro-4-[(1-methylethyl)oxy]phenyl}-1,2,4-oxadiazol-3-yl)-2,3-dihydro-1,4-benzoxazepin-4(5H)-yl]propanoic acid] | ≤ 5 |
| CC(C)Oc1ncc(-c2nc(-c3ccc4c(c3)CCNCC4)no2)cc1C#N [Example 48, 2-[(1-Methylethyl)oxy]-5-[3-(2,3,4,5-tetrahydro-1H-3-benzazepin-7-yl)-1,2,4-oxadiazol-5-yl]-3-pyridinecarbonitrile formate] | ≤ 5 |
| CC(C)Oc1ncc(-c2nc(-c3ccc4c(c3)CCNCC4)no2)cc1Cl [Example 49, 7-(5-{5-Chloro-6-[(1-methylethyl)oxy]-3-pyridinyl}-1,2,4-oxadiazol-3-yl)-2,3,4,5-tetrahydro-1H-3-benzazepine hydrochloride] | ≤ 5 |
| CC(C)Oc1ncc(-c2nc(-c3ccc4c(c3)CCN(CCCC(=O)O)CC4)no2)cc1Cl [Example 50, 4-[7-(5-{5-Chloro-6-[(1-methylethyl)oxy]-3-pyridinyl}-1,2,4-oxadiazol-3-yl)-1,2,4,5-tetrahydro-3H-3-benzazepin-3-yl]butanoic acid] | ≤ 5 |

Source: patent US20100174065A1, “COMPOUNDS” (GLAXO GROUP LIMITED, priority 2007, published 2010)
